Measured values reported in PMC6264874, “A single class of ARF GTPase activated by several pathway-specific ARF-GEFs regulates essential membrane traffic in Arabidopsis” (PLoS Genetics, 2018).
Results are given in words; binding and its absence hold for the method and conditions named. Binding seen in cells or lysates may run through a third protein. Some binding calls cover weakened binding; strength is not graded here. Sequences can lack the tags named with a protein.

Protein sequences, listed by entry. Tags and fused reporters are not part of them.
UniProt P36397: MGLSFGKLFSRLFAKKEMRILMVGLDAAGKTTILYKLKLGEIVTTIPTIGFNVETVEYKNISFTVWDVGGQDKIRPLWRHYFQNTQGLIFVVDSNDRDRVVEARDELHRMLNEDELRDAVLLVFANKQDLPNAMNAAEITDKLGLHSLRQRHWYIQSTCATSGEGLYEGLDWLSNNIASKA

Molecular target: T1, GNL1-Myc (Arabidopsis thaliana) (UniProt Q9FLY5)
T1 sequence: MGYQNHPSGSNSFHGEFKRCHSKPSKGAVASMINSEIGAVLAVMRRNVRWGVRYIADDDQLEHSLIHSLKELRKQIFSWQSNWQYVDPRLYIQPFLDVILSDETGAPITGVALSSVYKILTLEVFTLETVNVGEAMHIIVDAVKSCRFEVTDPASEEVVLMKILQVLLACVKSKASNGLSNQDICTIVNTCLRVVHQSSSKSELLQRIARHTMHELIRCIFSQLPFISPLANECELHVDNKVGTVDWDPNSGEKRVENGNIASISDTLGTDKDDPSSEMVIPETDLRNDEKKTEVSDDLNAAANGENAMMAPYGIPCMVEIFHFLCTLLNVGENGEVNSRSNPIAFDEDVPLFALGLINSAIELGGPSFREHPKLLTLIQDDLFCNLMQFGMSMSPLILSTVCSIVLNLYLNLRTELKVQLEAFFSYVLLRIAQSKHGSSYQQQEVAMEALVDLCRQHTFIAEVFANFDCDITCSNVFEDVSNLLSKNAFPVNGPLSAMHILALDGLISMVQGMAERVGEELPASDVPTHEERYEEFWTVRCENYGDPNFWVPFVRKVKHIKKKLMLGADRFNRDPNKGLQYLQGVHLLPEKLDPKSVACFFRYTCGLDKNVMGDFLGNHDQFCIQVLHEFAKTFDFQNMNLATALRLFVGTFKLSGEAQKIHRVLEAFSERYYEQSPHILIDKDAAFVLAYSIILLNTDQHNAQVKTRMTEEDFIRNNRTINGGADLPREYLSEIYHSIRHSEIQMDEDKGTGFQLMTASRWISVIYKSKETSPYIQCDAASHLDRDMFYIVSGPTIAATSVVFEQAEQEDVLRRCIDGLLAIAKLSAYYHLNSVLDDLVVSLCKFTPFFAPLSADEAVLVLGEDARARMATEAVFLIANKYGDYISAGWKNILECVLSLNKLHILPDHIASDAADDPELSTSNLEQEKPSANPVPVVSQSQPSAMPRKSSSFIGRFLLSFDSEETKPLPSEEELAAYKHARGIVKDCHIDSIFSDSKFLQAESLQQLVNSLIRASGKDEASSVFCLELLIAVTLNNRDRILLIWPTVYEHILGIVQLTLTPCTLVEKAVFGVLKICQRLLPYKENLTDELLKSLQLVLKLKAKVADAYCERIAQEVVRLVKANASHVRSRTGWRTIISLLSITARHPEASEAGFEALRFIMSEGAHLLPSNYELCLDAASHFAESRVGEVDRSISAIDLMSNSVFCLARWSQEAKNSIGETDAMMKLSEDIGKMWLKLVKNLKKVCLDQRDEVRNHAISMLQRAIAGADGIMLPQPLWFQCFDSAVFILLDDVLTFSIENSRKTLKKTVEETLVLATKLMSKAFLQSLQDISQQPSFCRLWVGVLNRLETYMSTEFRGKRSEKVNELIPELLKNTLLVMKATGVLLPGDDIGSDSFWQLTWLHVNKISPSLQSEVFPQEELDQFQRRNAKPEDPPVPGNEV
Test: co-IP; protein extracts of 5-6 days old Arabidopsis seedlings expressing differently tagged ARFs and ARF-GEFs; lysis buffer 50mM Tris pH 7.5, 150mM NaCl, 2mM EDTA, 1% Triton X-100; alpha-Myc-agarose, GFP-Trap or RFP-Trap beads, 2.5-3h in the cold room; immunoblot; in some experiments with BFA (50 uM); T31N and Q71L forms induced with 20 uM estradiol for 6h

binding: binds
Substance: ARF1-YFP (ARFA1c-YFP) (from UniProt P36397 1-181)
